Results are given in words; binding and its absence hold for the method and conditions named. Some results given as binding are weak or reduced against the parent protein; the word gives no strength.
Target: full-length human OX40L on the cell surface (human) (UniProt P23510)
Test: receptor occupancy by flow cytometry on MDDCs of the allogenic MDDC:T MLR at day 4; free OX40L stained with anti-OX40L clone ik-1, % occupancy calculated from MFI

The chains behind the UniProt entries cited, without tags or fusion partners. Where a name states a change or a piece, a line headed by the entry shows the natural chain unless it says otherwise.
UniProt P23510: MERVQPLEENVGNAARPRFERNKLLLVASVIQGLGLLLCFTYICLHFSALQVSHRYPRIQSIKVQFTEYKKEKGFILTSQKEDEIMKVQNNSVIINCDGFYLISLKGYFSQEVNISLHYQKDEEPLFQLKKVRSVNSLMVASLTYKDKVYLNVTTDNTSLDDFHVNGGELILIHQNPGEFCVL

B1: Ref1_Anti-OX40L (US Pat. No. 9,139,653) (antibody, V domains shown)
VH: EVQLVESGGGLVQPGGSLRLSCAASGFTFSNYAMNWVRQAPGKGLEWVSTISGSGGATRYADSVKGRFTISRDNSRNTVYLQMNSLRVEDTAVFYCTKDRLIMATVRGPYYYGMDVWGQGTTVTVSS
VL: DIQMTQSPSSLSASVGDRVTITCRASQSISSYLNWYQQKPGKAPNLLIYAASSLQSGVPSRFSGSGSETDFTLTISSLQPEDFATYYCQQSHSVSFTFGPGTKVDIK
In the case of B1, the binding is reported as “binds”.
